According to publication PMC12501092:
These are yes or no findings as the source states them, for the method shown. In cells and extracts the contact can be indirect. Some results given as binding are weak or reduced against the parent protein; the word gives no strength. For some assays here: Tags and fused reporters may be left off the sequences shown.

Protein sequences, listed by entry. Tags and fused reporters are not part of them. Lines headed by an entry give the natural chain unless they say otherwise; changes in a name come on top.
UniProt Q14258: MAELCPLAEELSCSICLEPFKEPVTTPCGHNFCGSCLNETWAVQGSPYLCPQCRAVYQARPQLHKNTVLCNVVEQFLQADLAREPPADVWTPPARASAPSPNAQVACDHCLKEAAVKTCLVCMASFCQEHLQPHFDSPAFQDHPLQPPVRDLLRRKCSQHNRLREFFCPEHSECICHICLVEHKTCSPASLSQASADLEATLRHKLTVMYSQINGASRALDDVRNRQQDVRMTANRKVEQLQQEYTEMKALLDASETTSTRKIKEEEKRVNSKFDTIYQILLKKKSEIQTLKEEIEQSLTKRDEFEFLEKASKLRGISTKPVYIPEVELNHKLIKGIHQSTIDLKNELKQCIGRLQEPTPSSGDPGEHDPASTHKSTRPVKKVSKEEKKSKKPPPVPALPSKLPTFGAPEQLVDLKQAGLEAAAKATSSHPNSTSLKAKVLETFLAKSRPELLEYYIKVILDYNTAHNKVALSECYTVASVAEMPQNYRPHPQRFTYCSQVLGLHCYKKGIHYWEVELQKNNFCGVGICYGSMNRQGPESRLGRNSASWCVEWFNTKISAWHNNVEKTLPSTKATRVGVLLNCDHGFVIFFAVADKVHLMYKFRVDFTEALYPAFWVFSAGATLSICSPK
UniProt Q92793: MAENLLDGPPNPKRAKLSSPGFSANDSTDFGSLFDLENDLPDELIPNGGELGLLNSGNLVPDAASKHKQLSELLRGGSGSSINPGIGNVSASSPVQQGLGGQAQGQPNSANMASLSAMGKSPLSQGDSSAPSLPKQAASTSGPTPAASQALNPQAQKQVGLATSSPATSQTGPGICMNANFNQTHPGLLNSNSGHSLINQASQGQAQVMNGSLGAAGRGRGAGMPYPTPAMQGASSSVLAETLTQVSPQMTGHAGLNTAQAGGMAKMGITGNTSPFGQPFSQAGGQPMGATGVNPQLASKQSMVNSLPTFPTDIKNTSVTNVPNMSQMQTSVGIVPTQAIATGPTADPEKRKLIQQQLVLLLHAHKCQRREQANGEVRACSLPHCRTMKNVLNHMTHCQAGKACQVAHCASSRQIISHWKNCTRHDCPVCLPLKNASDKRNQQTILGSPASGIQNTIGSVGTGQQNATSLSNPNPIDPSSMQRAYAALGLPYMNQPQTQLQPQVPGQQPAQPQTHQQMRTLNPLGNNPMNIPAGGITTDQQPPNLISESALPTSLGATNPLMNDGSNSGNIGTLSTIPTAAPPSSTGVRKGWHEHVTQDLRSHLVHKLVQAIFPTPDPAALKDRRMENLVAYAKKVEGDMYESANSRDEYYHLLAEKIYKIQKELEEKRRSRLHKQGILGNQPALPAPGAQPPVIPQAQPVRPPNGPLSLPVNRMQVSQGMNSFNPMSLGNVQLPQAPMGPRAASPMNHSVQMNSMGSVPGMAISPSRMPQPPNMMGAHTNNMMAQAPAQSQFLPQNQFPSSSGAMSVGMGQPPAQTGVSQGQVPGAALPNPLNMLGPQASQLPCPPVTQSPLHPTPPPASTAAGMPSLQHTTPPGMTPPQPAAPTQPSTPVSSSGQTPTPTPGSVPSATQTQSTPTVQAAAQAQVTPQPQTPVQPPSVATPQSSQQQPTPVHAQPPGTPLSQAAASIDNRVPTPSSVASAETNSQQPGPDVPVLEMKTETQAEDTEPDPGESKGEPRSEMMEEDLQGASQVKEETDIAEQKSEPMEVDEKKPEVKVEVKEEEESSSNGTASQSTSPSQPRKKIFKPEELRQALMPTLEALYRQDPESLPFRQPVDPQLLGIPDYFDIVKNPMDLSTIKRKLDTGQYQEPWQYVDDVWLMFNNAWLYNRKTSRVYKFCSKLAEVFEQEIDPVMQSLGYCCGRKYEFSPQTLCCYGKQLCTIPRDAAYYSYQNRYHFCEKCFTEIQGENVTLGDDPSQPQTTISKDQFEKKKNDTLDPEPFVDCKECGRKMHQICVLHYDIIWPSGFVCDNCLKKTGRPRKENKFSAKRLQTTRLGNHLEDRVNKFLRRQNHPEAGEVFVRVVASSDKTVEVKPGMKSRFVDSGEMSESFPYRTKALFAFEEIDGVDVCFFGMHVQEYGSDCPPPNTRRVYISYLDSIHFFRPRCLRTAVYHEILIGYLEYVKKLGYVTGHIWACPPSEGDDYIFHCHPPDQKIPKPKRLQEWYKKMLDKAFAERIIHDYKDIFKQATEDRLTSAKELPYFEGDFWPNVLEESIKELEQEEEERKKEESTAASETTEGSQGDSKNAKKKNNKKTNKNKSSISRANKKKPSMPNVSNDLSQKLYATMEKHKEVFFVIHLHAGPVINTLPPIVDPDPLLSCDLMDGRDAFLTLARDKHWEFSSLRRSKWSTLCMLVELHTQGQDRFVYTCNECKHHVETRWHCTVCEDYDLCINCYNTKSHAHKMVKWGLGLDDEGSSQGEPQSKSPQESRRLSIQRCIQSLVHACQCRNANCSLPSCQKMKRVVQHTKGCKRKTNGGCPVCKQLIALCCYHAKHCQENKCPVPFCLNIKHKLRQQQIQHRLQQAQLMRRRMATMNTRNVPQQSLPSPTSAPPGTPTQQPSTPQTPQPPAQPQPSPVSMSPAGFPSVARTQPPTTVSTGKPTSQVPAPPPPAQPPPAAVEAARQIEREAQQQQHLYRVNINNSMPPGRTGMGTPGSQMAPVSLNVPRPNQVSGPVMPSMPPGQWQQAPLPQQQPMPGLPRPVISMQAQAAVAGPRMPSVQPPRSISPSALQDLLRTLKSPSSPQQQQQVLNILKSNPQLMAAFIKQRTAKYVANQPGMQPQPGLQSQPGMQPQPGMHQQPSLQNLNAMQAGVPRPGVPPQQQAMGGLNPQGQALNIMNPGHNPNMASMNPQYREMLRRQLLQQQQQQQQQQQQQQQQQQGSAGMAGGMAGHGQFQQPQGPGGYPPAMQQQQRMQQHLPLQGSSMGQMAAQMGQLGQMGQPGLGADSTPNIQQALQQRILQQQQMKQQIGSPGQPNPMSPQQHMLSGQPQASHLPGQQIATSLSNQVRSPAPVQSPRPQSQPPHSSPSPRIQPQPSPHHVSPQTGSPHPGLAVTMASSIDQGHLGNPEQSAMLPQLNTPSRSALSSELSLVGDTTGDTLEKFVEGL
UniProt Q9NRC8: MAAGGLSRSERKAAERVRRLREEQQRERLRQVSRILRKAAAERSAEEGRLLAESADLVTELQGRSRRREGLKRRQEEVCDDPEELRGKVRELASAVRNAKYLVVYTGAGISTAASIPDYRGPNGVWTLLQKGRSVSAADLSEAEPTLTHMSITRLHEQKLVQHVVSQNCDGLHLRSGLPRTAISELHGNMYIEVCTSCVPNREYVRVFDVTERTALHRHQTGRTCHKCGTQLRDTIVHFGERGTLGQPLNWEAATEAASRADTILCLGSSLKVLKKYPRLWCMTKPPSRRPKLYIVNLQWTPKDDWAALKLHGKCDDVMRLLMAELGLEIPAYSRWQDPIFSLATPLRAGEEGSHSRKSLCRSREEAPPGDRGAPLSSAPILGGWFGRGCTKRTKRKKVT
UniProt Q93009: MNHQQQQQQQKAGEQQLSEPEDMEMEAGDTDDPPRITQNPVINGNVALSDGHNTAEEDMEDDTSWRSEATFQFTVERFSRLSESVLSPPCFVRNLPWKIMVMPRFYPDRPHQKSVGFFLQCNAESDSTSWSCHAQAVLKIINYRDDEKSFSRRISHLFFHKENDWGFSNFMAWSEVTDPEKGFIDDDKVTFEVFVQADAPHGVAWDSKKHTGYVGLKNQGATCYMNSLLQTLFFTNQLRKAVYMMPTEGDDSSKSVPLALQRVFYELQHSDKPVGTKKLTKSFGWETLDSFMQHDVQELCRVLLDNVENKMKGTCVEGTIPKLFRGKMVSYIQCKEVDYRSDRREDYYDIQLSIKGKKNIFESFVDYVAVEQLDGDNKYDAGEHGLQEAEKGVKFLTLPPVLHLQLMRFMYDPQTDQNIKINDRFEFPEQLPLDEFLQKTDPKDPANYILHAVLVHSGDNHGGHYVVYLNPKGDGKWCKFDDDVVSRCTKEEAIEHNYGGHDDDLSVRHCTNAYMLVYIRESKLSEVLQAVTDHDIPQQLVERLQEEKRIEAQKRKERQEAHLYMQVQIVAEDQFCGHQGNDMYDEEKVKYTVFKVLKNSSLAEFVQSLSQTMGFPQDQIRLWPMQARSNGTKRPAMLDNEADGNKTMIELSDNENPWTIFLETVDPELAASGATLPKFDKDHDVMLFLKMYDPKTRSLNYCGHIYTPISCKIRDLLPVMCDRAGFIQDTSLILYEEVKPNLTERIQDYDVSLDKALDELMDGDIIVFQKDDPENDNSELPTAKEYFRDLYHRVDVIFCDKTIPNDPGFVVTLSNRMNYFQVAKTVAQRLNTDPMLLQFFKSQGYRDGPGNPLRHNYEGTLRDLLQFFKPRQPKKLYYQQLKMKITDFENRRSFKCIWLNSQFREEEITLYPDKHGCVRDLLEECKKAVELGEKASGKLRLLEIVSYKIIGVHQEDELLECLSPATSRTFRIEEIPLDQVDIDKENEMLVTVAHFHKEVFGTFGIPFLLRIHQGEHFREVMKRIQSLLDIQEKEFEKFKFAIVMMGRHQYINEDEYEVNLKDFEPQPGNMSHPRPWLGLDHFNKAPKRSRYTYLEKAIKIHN

Key:
[1] = target: TRIM25, endogenous (human (endogenous in A549 and H1299)) (UniProt Q14258); experiment: co-IP; endogenous proteins in A549 and H1299 (NSCLC) cell lysates; antibody-coupled protein A/G magnetic beads; Western blot
[2] = target: TRIM25 (tripartite motif containing 25), transfected, as co-expressed with CBP or SIRT7 (UniProt Q14258); experiment: co-IP; 293 T cells co-transfected with tagged plasmids; lysed in ice-cold IP lysate; anti-Flag or anti-HA magnetic beads; Western blot
TRIM25-FLAG [3] = target: TRIM25-FLAG (UniProt Q14258); experiment: as above
TRIM25-FLAG [4] = target: TRIM25-FLAG (UniProt Q14258); experiment: co-IP; A549 cells co-transfected with tagged plasmids; anti-Flag or anti-HA magnetic beads; Western blot
TRIM25-K392Q [5] = target: TRIM25-K392Q (UniProt Q14258); experiment: as above
TRIM25-K392R [6] = target: TRIM25-K392R (UniProt Q14258); experiment: as above
TRIM25-FLAG [7] = target: TRIM25-FLAG (UniProt Q14258); experiment: co-IP; 293 T cells co-transfected with tagged plasmids; lysed in ice-cold IP lysate; anti-Flag or anti-HA magnetic beads; Western blot; remark: listed apart in the source
TRIM25-FLAG [8] = target: TRIM25-FLAG (UniProt Q14258); experiment: co-IP; TRIM25-WT, -KR and -KQ each co-transfected with USP15; cell line not named in the legend; Western blot
TRIM25-K392Q [9] = target: TRIM25-K392Q (UniProt Q14258); experiment: as above
TRIM25-K392R [10] = target: TRIM25-K392R (UniProt Q14258); experiment: as above

## CBP, endogenous (from UniProt Q92793 1-2442) (enzyme)
[1]
  binding: binds

## SIRT7, endogenous (from UniProt Q9NRC8 1-400) (enzyme)
[1]
  binding: binds

## Sirtuin 7 (SIRT7), transfected (from UniProt Q9NRC8 1-400) (enzyme)
[2]
  binding: binds

## USP7, endogenous (from UniProt Q93009 1-1102) (enzyme)
[1]
  binding: binds

## USP7-HA (ubiquitin specific peptidase 7) (from UniProt Q93009 1-1102) (enzyme)
TRIM25-FLAG [3]
  binding: binds
TRIM25-FLAG [4]
  binding: binds
TRIM25-K392Q [5]
  binding: binds
TRIM25-K392R [6]
  binding: binds

## cAMP-responsive element-binding (CREB)-binding protein (CBP), transfected (from UniProt Q92793 1-2442) (enzyme)
[2]
  binding: binds

B1: USP15-HA (enzyme, UniProt Q9Y4E8 1-981)
chain: MAEGGAADLDTQRSDIATLLKTSLRKGDTWYLVDSRWFKQWKKYVGFDSWDKYQMGDQNVYPGPIDNSGLLKDGDAQSLKEHLIDELDYILLPTEGWNKLVSWYTLMEGQEPIARKVVEQGMFVKHCKVEVYLTELKLCENGNMNNVVTRRFSKADTIDTIEKEIRKIFSIPDEKETRLWNKYMSNTFEPLNKPDSTIQDAGLYQGQVLVIEQKNEDGTWPRGPSTPKSPGASNFSTLPKISPSSLSNNYNNMNNRNVKNSNYCLPSYTAYKNYDYSEPGRNNEQPGLCGLSNLGNTCFMNSAIQCLSNTPPLTEYFLNDKYQEELNFDNPLGMRGEIAKSYAELIKQMWSGKFSYVTPRAFKTQVGRFAPQFSGYQQQDCQELLAFLLDGLHEDLNRIRKKPYIQLKDADGRPDKVVAEEAWENHLKRNDSIIVDIFHGLFKSTLVCPECAKISVTFDPFCYLTLPLPMKKERTLEVYLVRMDPLTKPMQYKVVVPKIGNILDLCTALSALSGIPADKMIVTDIYNHRFHRIFAMDENLSSIMERDDIYVFEININRTEDTEHVIIPVCLREKFRHSSYTHHTGSSLFGQPFLMAVPRNNTEDKLYNLLLLRMCRYVKISTETEETEGSLHCCKDQNINGNGPNGIHEEGSPSEMETDEPDDESSQDQELPSENENSQSEDSVGGDNDSENGLCTEDTCKGQLTGHKKRLFTFQFNNLGNTDINYIKDDTRHIRFDDRQLRLDERSFLALDWDPDLKKRYFDENAAEDFEKHESVEYKPPKKPFVKLKDCIELFTTKEKLGAEDPWYCPNCKEHQQATKKLDLWSLPPVLVVHLKRFSYSRYMRDKLDTLVDFPINDLDMSEFLINPNAGPCRYNLIAVSNHYGGMGGGHYTAFAKNKDDGKWYYFDDSSVSTASEDQIVSKAAYVLFYQRQDTFSGTGFFPLDRETKGASAATGIPLESDEDSNDNDNDIENENCMHTN
TRIM25-FLAG [4]
  binding: binds
TRIM25-FLAG [7]
  binding: binds
TRIM25-FLAG [8]
  binding: binds
TRIM25-K392Q [9]
  binding: binds
TRIM25-K392R [10]
  binding: binds
